PubChem BioAssay AID1259308 | NCATS | 2017
In all, the deposit lists about 59,000 reagents; this is a random part of them. Of all reagents, about 1,510 (2.6%) were called active. 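Calls use total luciferase alone and ignore viability, so some active siRNAs may act by altering cell number.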 Reagents against one gene are numbered here. Further read-outs or replicates are left out here.

Purpose: 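Candidate targets for better recombinant protein yield in mammalian cells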 (primary screen)
Cells: human HEK293 embryonic kidney cells stably expressing firefly luciferase (HEK-CMV-Luc2-Hygro)
Knock-down reagent: single siRNA against human genes, 0.8 pmol siRNA per well
Time to read-out: 72 h
Read-out: 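Reporter luminescence and viable-cell signal on separate replicate plates, given as percent of non-targeting control and median/MAD z-scores, plus per-cell luciferase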
Scale: total luciferase, z-score: higher = more reporter protein produced
Rule for the call: 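Active when the median/MAD z-score for overall luciferase is greater than 3; a gene was taken forward for validation with new siRNAs if at least two of its three siRNAs passed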
Calls: active = raised luciferase; inactive = no rise

gene knocked down,siRNA no.,"total luciferase, z-score",Outcome
GGA2 (GeneID 23062),1,0.219,inactive
GGA2 (GeneID 23062),2,1.37,inactive
GGA2 (GeneID 23062),3,-0.798,inactive
CRABP2 (GeneID 1382),1,-0.766,inactive
CRABP2 (GeneID 1382),2,0.14,inactive
CRABP2 (GeneID 1382),3,-1.39,inactive
FBXL2 (GeneID 25827),1,3.15,active
FBXL2 (GeneID 25827),2,-0.727,inactive
FBXL2 (GeneID 25827),3,0.742,inactive
DCAF5 (GeneID 8816),1,1.07,inactive
DCAF5 (GeneID 8816),2,-0.193,inactive
DCAF5 (GeneID 8816),3,1.41,inactive
TRIM77 (GeneID 390231),1,-2.57,inactive
TRIM77 (GeneID 390231),2,-0.787,inactive
TRIM77 (GeneID 390231),3,0.746,inactive
KATNAL1 (GeneID 84056),1,-0.739,inactive
KATNAL1 (GeneID 84056),2,-0.259,inactive
KATNAL1 (GeneID 84056),3,-1.31,inactive
CLSPN (GeneID 63967),1,-1.06,inactive
CLSPN (GeneID 63967),2,1.25,inactive
CLSPN (GeneID 63967),3,-0.888,inactive
SEPTIN3 (GeneID 55964),1,-0.661,inactive
SEPTIN3 (GeneID 55964),2,-0.225,inactive
SEPTIN3 (GeneID 55964),3,4.54,active

Entries above whose gene name starts with G or g (3):
gene knocked down,siRNA no.,"total luciferase, z-score",Outcome
GGA2 (GeneID 23062),1,0.219,inactive
GGA2 (GeneID 23062),2,1.37,inactive
GGA2 (GeneID 23062),3,-0.798,inactive

The listing continues.
gene knocked down,siRNA no.,"total luciferase, z-score",Outcome
CYB5R4 (GeneID 51167),1,-1.14,inactive
CYB5R4 (GeneID 51167),2,0.959,inactive
CYB5R4 (GeneID 51167),3,-1.17,inactive
TMBIM4 (GeneID 51643),1,2.19,inactive
TMBIM4 (GeneID 51643),2,-1.53,inactive
TMBIM4 (GeneID 51643),3,-1.07,inactive
ANKRD26 (GeneID 22852),1,0.881,inactive
ANKRD26 (GeneID 22852),2,-0.218,inactive
ANKRD26 (GeneID 22852),3,2.46,inactive
ENDOD1 (GeneID 23052),1,1.99,inactive
ENDOD1 (GeneID 23052),2,1.08,inactive
ENDOD1 (GeneID 23052),3,-1.65,inactive
SUMF1 (GeneID 285362),1,0.315,inactive
SUMF1 (GeneID 285362),2,0.144,inactive
SUMF1 (GeneID 285362),3,-2.6,inactive
